Experimental findings from the supplement of paper PMC11732987, “Enantioselective OTUD7B fragment discovery through chemoproteomics screening and high-throughput optimisation” (Communications Chemistry, 2025) are described below.

Chains of the proteins cited; added tags and fusions are not shown. Lines headed by an entry give the natural chain unless they say otherwise; changes in a name come on top.
UniProt Q9NWH9: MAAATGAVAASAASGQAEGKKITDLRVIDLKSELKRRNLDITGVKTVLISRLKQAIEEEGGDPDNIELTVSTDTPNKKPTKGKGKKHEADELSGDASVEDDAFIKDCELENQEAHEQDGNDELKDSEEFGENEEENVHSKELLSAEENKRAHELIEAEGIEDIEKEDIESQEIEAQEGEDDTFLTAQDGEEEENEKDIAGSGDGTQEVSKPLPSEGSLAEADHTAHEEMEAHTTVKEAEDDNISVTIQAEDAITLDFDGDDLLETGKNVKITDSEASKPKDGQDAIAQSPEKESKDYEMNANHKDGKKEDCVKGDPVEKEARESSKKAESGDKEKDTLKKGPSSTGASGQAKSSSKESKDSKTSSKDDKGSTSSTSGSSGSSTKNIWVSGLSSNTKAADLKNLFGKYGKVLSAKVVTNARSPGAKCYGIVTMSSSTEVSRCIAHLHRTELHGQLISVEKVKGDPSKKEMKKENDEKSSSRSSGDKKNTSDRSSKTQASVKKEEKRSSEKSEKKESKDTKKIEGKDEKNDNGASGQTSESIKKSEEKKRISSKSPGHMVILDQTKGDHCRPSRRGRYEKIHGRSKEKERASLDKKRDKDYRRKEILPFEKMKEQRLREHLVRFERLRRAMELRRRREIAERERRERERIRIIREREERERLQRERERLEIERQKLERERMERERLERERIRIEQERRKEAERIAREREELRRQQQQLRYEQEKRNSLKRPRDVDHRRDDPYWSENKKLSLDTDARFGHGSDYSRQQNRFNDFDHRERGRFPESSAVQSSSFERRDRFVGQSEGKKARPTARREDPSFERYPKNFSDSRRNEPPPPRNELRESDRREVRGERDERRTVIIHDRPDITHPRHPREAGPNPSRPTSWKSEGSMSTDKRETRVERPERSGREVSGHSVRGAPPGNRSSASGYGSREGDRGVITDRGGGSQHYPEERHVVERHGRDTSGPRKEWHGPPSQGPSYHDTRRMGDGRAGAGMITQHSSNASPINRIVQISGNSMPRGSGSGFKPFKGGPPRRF

Each structure is given as a SMILES string. This is one part of the list. The data scatter; read single values as rough.

One assay deals with SLTM C311 (UniProt Q9NWH9). Put plainly: log2 mean competition ratio of IA-DTB cysteine labelling (DMSO/compound) (log2 ratio); higher = stronger cysteine engagement by compound. Particulars: 50 µM; treatment time: 4 h; cell line lysate: HEK293T. The protocol:
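IA-DTB competitive cysteine chemoproteomics in HEK293T RIPA lysate. Lysates were treated with compound 29 or 30 at 50 or 200 µM for 4 h, then IA-DTB (500 µM, 1 h), trypsin-digested, NeutrAvidin-enriched and analysed by diaPASEF. Competition ratio = intensity DMSO / intensity compound (n=4 treated, n=64 DMSO); binding: mean log2 CR ≥ 1 and p ≤ 0.05 plus QC filters. Target is the cysteine site.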
For `O=C(CCl)N[C@H]1CCCc2ccccc21`, the “log2 mean competition ratio” value was -0.124.

With `O=C(CCl)N[C@@H]1CCCc2ccccc21`, the “log2 mean competition ratio” value is -0.141.

Staying with this assay, now noted: 200 µM; treatment time: 4 h; cell line lysate: HEK293T.
Regarding `O=C(CCl)N[C@H]1CCCc2ccccc21`, the “log2 mean competition ratio” value was -0.0871.

For `O=C(CCl)N[C@@H]1CCCc2ccccc21`, the “log2 mean competition ratio” value was determined as 0.29.
